{"source": "patent US9486528B2", "about": "“Stable pharmaceutical formulation for oral administration comprising levocetirizine or a pharmaceutically acceptable salt thereof, and montelukast or a pharmaceutically acceptable salt thereof” (HANMI PHARM. CO., LTD., priority 2012, dated 2016)", "origin": "cited, not measured here", "settings": "in 0.1 M hydrochloric acid solution, exposed to sodium light for 6 hours", "note": "For at least one compound, name, drawing or mass did not settle the structure.", "data": [{"smiles": "CC(C)(O)c1ccccc1CC[C@@H](SCC1(CC(=O)O)CC1)c1cccc(/C=C/c2ccc3ccc(Cl)cc3n2)c1", "note": "[montelukast, Montelukast]", "values": [{"measurement": "increase of the amount of montelukast cis-isomer", "result": 14.6, "unit": "%"}]}]}
